# Laboratory results reported in the supplement of paper PMC4604168 (melanoma cell lines).
# The other results are listed elsewhere or left out. Many values rest on one well or one pass, so single values are uncertain.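 Cells were imaged in 1,536-well plates, and nuclei stained with an antibody against cleaved PARP were counted against all DNA-stained nuclei to give the apoptosis fraction. Screening doses were chosen to leave most cells alive, and resting and induced cleaved-PARP levels differ strongly between cell lines.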
# What was measured:
# Test in all cases: cleaved PARP positive nuclei fraction relative to DMSO control; melanoma cells; higher = more apoptosis
# Conditions in all cases: library dose: low library concentration; 72 h
# 501Mel = system: 501Mel
# A101D = system: A101D
# A2058 = system: A2058
# A375 = system: A375
# C32 = system: C32
# CBRC008 = system: CBRC008 (line from a melanoma biopsy)
# CBRC014 = system: CBRC014 (line from a melanoma biopsy)
# CBRC016 = system: CBRC016 (line from a melanoma biopsy)
# CBRC017 = system: CBRC017 (line from a melanoma biopsy)
# CBRC034 = system: CBRC034 (line from a melanoma biopsy)
# COLO792 = system: COLO792
# COLO800 = system: COLO800
# COLO829 = system: COLO829
# G361 = system: G361
# IPC-298 = system: IPC-298
# IST-MEL1 = system: IST-MEL1
# LB2518-MEL = system: LB2518-MEL
# LOXIMVI = system: LOXIMVI
# MEL-HO = system: MEL-HO
SMILES,cleaved PARP positive nuclei fraction (501Mel),cleaved PARP positive nuclei fraction (A101D),cleaved PARP positive nuclei fraction (A2058),cleaved PARP positive nuclei fraction (A375),cleaved PARP positive nuclei fraction (C32),cleaved PARP positive nuclei fraction (CBRC008),cleaved PARP positive nuclei fraction (CBRC014),cleaved PARP positive nuclei fraction (CBRC016),cleaved PARP positive nuclei fraction (CBRC017),cleaved PARP positive nuclei fraction (CBRC034),cleaved PARP positive nuclei fraction (COLO792),cleaved PARP positive nuclei fraction (COLO800),cleaved PARP positive nuclei fraction (COLO829),cleaved PARP positive nuclei fraction (G361),cleaved PARP positive nuclei fraction (IPC-298),cleaved PARP positive nuclei fraction (IST-MEL1),cleaved PARP positive nuclei fraction (LB2518-MEL),cleaved PARP positive nuclei fraction (LOXIMVI),cleaved PARP positive nuclei fraction (MEL-HO)
"Cn1cnc2c(F)c(Nc3ccc(Br)cc3Cl)c(C(=O)NOCCO)cc21 [selumetinib] + Cc1nc(Nc2ncc(C(=O)Nc3c(C)cccc3Cl)s2)cc(N2CCN(CCO)CC2)n1 [dasatanib] (first compound 0.015 µM, partner dose 0.004 µM)",208%,222%,189%,309%,285%,62.9%,91.9%,131%,115%,166%,308%,154%,28.2%,192%,63.7%,75.1%,436%,237%,23.5%
"Cn1sc(=O)n(Cc2ccccc2)c1=O + Cn1c(=O)n(-c2ccc(C(C)(C)C#N)cc2)c2c3cc(-c4cnc5ccccc5c4)ccc3ncc21 [NVP-BEZ235] (first compound 0.4 µM, partner dose 0.004 µM)",90.8%,101%,89.3%,164%,78.9%,62%,94.4%,93.3%,113%,29.8%,66.9%,128%,27.4%,165%,179%,45.8%,109%,73.5%,178%
"CN(c1ncccc1CNc1nc(Nc2ccc3c(c2)CC(=O)N3)ncc1C(F)(F)F)S(C)(=O)=O + CN1CCN(c2ccc3nc(-c4c(N)c5c(F)cccc5[nH]c4=O)[nH]c3c2)CC1 [Dovitinib] (first compound 0.08 µM, partner dose 0.1 µM)",144%,95.5%,131%,118%,93.2%,75.9%,113%,99.9%,82.4%,84.8%,133%,122%,49.8%,116%,87.5%,102%,93.3%,128%,113%
"CCCCCCCCc1ccc(CCC(N)(CO)CO)cc1 [fingolimod] + C=C(c1ccc(C(=O)O)cc1)c1cc2c(cc1C)C(C)(C)CCC2(C)C [Bexarotene] (first compound 2 µM, partner dose 2 µM)",201%,91.3%,78%,80.7%,74.2%,132%,95.1%,64.4%,226%,128%,97.6%,44.6%,109%,119%,45.5%,87%,194%,124%,87.2%
"CCCCCCCCc1ccc(CCC(N)(CO)CO)cc1 [fingolimod] + Clc1ccc(Nc2nnc(Cc3ccncc3)c3ccccc23)cc1 [vatalanib] (first compound 2 µM, partner dose 2 µM)",294%,158%,60%,500%,76.9%,51%,137%,70.9%,86.1%,44.7%,130%,50.6%,89.5%,117%,43.1%,87.9%,142%,502%,137%
"CCN(CC)CCNC(=O)c1c(C)[nH]c(/C=C2\C(=O)Nc3ccc(F)cc32)c1C [sunitinib] + NC1(c2ccc(-c3nc4ccn5c(=O)[nH]nc5c4cc3-c3ccccc3)cc2)CCC1 [MK2206] (first compound 0.4 µM, partner dose 0.4 µM)",132%,147%,193%,120%,84.9%,178%,80.5%,49.6%,100%,74.9%,95.9%,190%,68.6%,113%,92.2%,202%,72.8%,23%,203%
"Cn1cnc2c(F)c(Nc3ccc(Br)cc3Cl)c(C(=O)NOCCO)cc21 [selumetinib] + NC(=O)c1ccc(N(C(N)=O)c2c(F)cccc2F)nc1-c1ccc(F)cc1F [VX702] (first compound 0.015 µM, partner dose 0.4 µM)",575%,50.6%,67.5%,317%,371%,114%,111%,172%,155%,167%,65.6%,69.2%,53.9%,150%,90.9%,81.7%,177%,97.4%,131%
"NC(=O)c1ccc(N(C(N)=O)c2c(F)cccc2F)nc1-c1ccc(F)cc1F + CN1CCN(c2ccc3nc(-c4c(N)c5c(F)cccc5[nH]c4=O)[nH]c3c2)CC1 [Dovitinib] (first compound 0.4 µM, partner dose 0.1 µM)",309%,123%,127%,150%,124%,38.9%,90.1%,38.3%,70.8%,65.2%,60.2%,360%,100%,161%,83.5%,353%,35%,132%,143%
"C[C@]1(O)C[C@@H](c2nc(-c3ccc4ccc(-c5ccccc5)nc4c3)c3c(N)nccn32)C1 + C=CCNC1=C2C[C@@H](C)C[C@H](OC)[C@H](O)[C@@H](C)/C=C(\C)[C@H](OC(N)=O)[C@@H](OC)/C=C\C=C(/C)C(=O)NC(=CC1=O)C2=O [Tanespimycin] (first compound 0.4 µM, partner dose 0.002 µM)",177%,94.2%,111%,945%,73%,121%,97.9%,135%,91.2%,61.6%,153%,133%,131%,85%,179%,34.6%,105%,103%,115%
"C[C@]1(O)C[C@@H](c2nc(-c3ccc4ccc(-c5ccccc5)nc4c3)c3c(N)nccn32)C1 + CS(=O)(=O)c1ccc(C(=O)Nc2ccc(Cl)c(-c3ccccn3)c2)c(Cl)c1 [vismodegib] (first compound 0.4 µM, partner dose 1 µM)",78.8%,182%,79%,252%,71.8%,79.5%,118%,36.5%,121%,61.5%,165%,124%,163%,35.4%,62.4%,62.7%,107%,70.4%,125%
"Cn1sc(=O)n(Cc2ccccc2)c1=O + NC(=O)c1ccc(N(C(N)=O)c2c(F)cccc2F)nc1-c1ccc(F)cc1F [VX702] (first compound 0.4 µM, partner dose 0.4 µM)",102%,110%,107%,166%,75.4%,79.8%,107%,196%,81.9%,89.4%,125%,73.4%,96.8%,96.5%,158%,260%,38.5%,83.4%,77.5%
"C[C@]1(O)C[C@@H](c2nc(-c3ccc4ccc(-c5ccccc5)nc4c3)c3c(N)nccn32)C1 + CNC(=O)c1cc(Oc2ccc(NC(=O)Nc3ccc(Cl)c(C(F)(F)F)c3)cc2)ccn1 [sorafenib] (first compound 0.4 µM, partner dose 0.4 µM)",138%,99.7%,79.1%,487%,88.5%,118%,114%,64.9%,110%,68.4%,116%,144%,111%,106%,92.1%,35.1%,52%,15.1%,116%
"CCN(CC)CCNC(=O)c1c(C)[nH]c(/C=C2\C(=O)Nc3ccc(F)cc32)c1C [sunitinib] + OCc1c[nH]c2ccccc12 [Indole-3-carbinol] (first compound 0.4 µM, partner dose 0.8 µM)",143%,155%,81.4%,128%,123%,98.9%,90.7%,73.7%,105%,145%,77%,106%,105%,90%,86.6%,158%,97.1%,209%,169%
"C[C@]1(O)C[C@@H](c2nc(-c3ccc4ccc(-c5ccccc5)nc4c3)c3c(N)nccn32)C1 + CC(C)C[C@H](NC(=O)[C@H](Cc1ccccc1)NC(=O)c1cnccn1)B(O)O [Bortezomib] (first compound 0.4 µM, partner dose 0.001 µM)",420%,84.1%,185%,274%,35.8%,250%,120%,38.2%,162%,114%,41.5%,171%,194%,281%,63%,108%,64.1%,206%,58.5%
"Cn1cnc2c(F)c(Nc3ccc(Br)cc3Cl)c(C(=O)NOCCO)cc21 [selumetinib] + CCCCCCCCc1ccc(CCC(N)(CO)CO)cc1 [fingolimod] (first compound 0.015 µM, partner dose 2 µM)",1190%,110%,34.7%,374%,187%,127%,93.6%,182%,129%,192%,140%,34.5%,138%,99.9%,404%,406%,182%,55.7%,80.7%
"CC(=O)O[C@@]12CO[C@@H]1C[C@H](O)[C@@]1(C)C(=O)[C@H](O)C3=C(C)[C@@H](OC(=O)[C@H](O)[C@@H](NC(=O)OC(C)(C)C)c4ccccc4)C[C@@](O)([C@@H](OC(=O)c4ccccc4)[C@H]21)C3(C)C [Docetaxel] + OCc1c[nH]c2ccccc12 [Indole-3-carbinol] (first compound 0.0001 µM, partner dose 0.8 µM)",1090%,234%,2250%,1870%,414%,336%,170%,399%,214%,236%,304%,167%,185%,656%,496%,189%,168%,144%,329%

# Record cards, from the list above. Order of values: cleaved PARP positive nuclei fraction (501Mel)	cleaved PARP positive nuclei fraction (A101D)	cleaved PARP positive nuclei fraction (A2058)	cleaved PARP positive nuclei fraction (A375)	cleaved PARP positive nuclei fraction (C32)	cleaved PARP positive nuclei fraction (CBRC008)	cleaved PARP positive nuclei fraction (CBRC014)	cleaved PARP positive nuclei fraction (CBRC016)	cleaved PARP positive nuclei fraction (CBRC017)	cleaved PARP positive nuclei fraction (CBRC034)	cleaved PARP positive nuclei fraction (COLO792)	cleaved PARP positive nuclei fraction (COLO800)	cleaved PARP positive nuclei fraction (COLO829)	cleaved PARP positive nuclei fraction (G361)	cleaved PARP positive nuclei fraction (IPC-298)	cleaved PARP positive nuclei fraction (IST-MEL1)	cleaved PARP positive nuclei fraction (LB2518-MEL)	cleaved PARP positive nuclei fraction (LOXIMVI)	cleaved PARP positive nuclei fraction (MEL-HO)
# C[C@]1(O)C[C@@H](c2nc(-c3ccc4ccc(-c5ccccc5)nc4c3)c3c(N)nccn32)C1 + C=CCNC1=C2C[C@@H](C)C[C@H](OC)[C@H](O)[C@@H](C)/C=C(\C)[C@H](OC(N)=O)[C@@H](OC)/C=C\C=C(/C)C(=O)NC(=CC1=O)C2=O [Tanespimycin] (first compound 0.4 µM, partner dose 0.002 µM) in the list: 177%	94.2%	111%	945%	73%	121%	97.9%	135%	91.2%	61.6%	153%	133%	131%	85%	179%	34.6%	105%	103%	115%
# Cn1cnc2c(F)c(Nc3ccc(Br)cc3Cl)c(C(=O)NOCCO)cc21 [selumetinib] + CCCCCCCCc1ccc(CCC(N)(CO)CO)cc1 [fingolimod] (first compound 0.015 µM, partner dose 2 µM) in the list: 1190%	110%	34.7%	374%	187%	127%	93.6%	182%	129%	192%	140%	34.5%	138%	99.9%	404%	406%	182%	55.7%	80.7%
